# These are yes or no findings as the source states them, for the method shown. In cells and extracts the contact can be indirect. Some entries that bind do so weakly or less than the wild type.
# Sequences of proteins named here, by UniProt entry; tags and fusion partners are left off.
# UniProt O08537: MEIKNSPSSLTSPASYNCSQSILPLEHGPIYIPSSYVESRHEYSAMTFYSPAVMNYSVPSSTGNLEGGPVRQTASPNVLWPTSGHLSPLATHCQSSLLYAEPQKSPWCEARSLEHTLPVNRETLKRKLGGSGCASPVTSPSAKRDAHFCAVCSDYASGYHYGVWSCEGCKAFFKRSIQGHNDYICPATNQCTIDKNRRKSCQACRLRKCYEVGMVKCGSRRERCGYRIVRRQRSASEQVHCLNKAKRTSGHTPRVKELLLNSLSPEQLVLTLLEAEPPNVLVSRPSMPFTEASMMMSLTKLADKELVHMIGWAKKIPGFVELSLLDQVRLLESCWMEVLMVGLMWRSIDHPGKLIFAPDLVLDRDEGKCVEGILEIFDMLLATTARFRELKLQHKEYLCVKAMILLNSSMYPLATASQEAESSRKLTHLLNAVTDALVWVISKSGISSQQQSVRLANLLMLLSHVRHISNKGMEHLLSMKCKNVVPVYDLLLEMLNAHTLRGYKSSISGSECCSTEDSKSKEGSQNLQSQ
# UniProt P19785: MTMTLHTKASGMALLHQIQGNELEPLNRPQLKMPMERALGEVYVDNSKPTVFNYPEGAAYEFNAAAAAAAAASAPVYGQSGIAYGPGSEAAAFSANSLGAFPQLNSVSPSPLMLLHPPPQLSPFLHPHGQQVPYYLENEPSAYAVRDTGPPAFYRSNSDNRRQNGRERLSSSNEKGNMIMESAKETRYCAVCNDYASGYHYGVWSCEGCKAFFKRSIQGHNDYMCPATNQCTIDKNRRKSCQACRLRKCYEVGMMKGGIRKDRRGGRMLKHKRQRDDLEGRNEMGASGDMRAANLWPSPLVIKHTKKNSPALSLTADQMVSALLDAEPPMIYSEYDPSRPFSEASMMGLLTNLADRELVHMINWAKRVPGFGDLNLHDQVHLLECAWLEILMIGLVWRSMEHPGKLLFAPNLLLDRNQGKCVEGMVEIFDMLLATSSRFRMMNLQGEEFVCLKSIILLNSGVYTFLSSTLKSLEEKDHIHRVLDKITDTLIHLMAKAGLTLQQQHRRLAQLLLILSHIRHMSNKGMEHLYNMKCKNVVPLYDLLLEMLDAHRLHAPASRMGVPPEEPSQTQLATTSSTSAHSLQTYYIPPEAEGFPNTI
# UniProt Q04207: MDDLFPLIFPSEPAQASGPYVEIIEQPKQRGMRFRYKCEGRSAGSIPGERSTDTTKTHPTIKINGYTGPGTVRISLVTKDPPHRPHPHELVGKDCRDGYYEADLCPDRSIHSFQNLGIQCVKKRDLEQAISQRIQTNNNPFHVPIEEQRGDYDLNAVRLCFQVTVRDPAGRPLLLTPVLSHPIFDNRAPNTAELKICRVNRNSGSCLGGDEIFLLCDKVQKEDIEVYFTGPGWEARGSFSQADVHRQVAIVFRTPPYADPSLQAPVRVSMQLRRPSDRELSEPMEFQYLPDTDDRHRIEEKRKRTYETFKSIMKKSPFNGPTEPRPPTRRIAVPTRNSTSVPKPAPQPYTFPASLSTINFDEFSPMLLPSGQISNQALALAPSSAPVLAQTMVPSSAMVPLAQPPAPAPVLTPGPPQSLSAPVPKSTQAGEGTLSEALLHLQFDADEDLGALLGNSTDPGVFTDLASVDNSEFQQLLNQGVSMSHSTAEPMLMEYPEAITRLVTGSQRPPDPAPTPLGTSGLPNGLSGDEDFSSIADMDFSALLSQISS
# B1: NF-κB molecule RelB (protein, UniProt Q04863 1-558)
# chain: MPSRRAARESAPELGALGSSDLSSLSLTVSRTTDELEIIDEYIKENGFGLDGTQLSEMPRLVPRGPASLSSVTLGPAAPPPPATPSWSCTLGRLVSPGPCPRPYLVITEQPKQRGMRFRYECEGRSAGSILGESSTEASKTLPAIELRDCGGLREVEVTACLVWKDWPHRVHPHSLVGKDCTDGVCRVRLRPHVSPRHSFNNLGIQCVRKKEIEAAIERKIQLGIDPYNAGSLKNHQEVDMNVVRICFQASYRDQQGHLHRMDPILSEPVYDKKSTNTSELRICRINKESGPCTGGEELYLLCDKVQKEDISVVFSTASWEGRADFSQADVHRQIAIVFKTPPYEDLEISEPVTVNVFLQRLTDGVCSEPLPFTYLPRDHDSYGVDKKRKRGLPDVLGELSSSDPHGIESKRRKKKPVFLDHFLPGHSSGLFLPPSALQPADSDFFPASISLPGLEPPGGPDLLDDGFAYDPSAPTLFTMLDLLPPAPPLASAVVGSGGAGATVVESSGPEPLSLDSFAAPGPGDVGTASLVGSNMFPNQYREAAFGGGLLSPGPEAT
# Legend:
# [1] = molecular target: estrogen receptor β (mouse (endogenous in frontal cortex of Swiss albino mice)) (UniProt O08537); assay: co-IP; as a1; tamoxifen supplemented prior to MPTP, male mice, day1, day3, day7
# [2] = molecular target: estrogen receptor β (mouse (endogenous in frontal cortex of Swiss albino mice)) (UniProt O08537); assay: co-IP; about 100 μg protein of frontal cortex (nuclear fractionation) of male and female mice precipitated with anti-ERβ overnight at 4 °C, Protein G agarose, washed with PBS, western blot for ERα, p65, RelB; groups: control, MPTP, estrogen + MPTP, tamoxifen + MPTP, estrogen + tamoxifen + MPTP; sacrifice on day1, day3, day7
# [3] = molecular target: estrogen receptor β (mouse (endogenous in frontal cortex of Swiss albino mice)) (UniProt O08537); assay: co-IP; as a1; tamoxifen supplemented prior to MPTP, female mice, day1, day3, day7
# [4] = molecular target: estrogen receptor β (mouse (endogenous in frontal cortex of Swiss albino mice)) (UniProt O08537); assay: condition: only tamoxifen supplemented prior to MPTP treatment, male mice; co-IP; as a1; tamoxifen supplemented prior to MPTP, male mice, day1, day3, day7
# [5] = molecular target: estrogen receptor β (mouse (endogenous in frontal cortex of Swiss albino mice)) (UniProt O08537); assay: condition: only estrogen supplemented prior to MPTP treatment, female mice; co-IP; as a1; estrogen supplemented prior to MPTP, female mice
# [6] = molecular target: estrogen receptor β (mouse (endogenous in frontal cortex of Swiss albino mice)) (UniProt O08537); assay: condition: only estrogen supplemented and estrogen receptors blocked (tamoxifen) prior to MPTP treatment; co-IP; as a1; estrogen + tamoxifen supplemented prior to MPTP, male and female mice
# [7] = molecular target: estrogen receptor β (mouse (endogenous in frontal cortex of Swiss albino mice)) (UniProt O08537); assay: co-IP; as a1; MPTP-treated male mice, day1, day3, day7
# [8] = molecular target: estrogen receptor β (mouse (endogenous in frontal cortex of Swiss albino mice)) (UniProt O08537); assay: co-IP; about 100 μg protein of frontal cortex (nuclear fractionation) of male and female mice precipitated with anti-ERβ overnight at 4 °C, Protein G agarose, washed with PBS, western blot for ERα, p65, RelB; groups: control, MPTP, estrogen + MPTP, tamoxifen + MPTP, estrogen + tamoxifen + MPTP; sacrifice on day1, day3, day7; remark: listed apart in the source
# [9] = molecular target: estrogen receptor β (mouse (endogenous in frontal cortex of Swiss albino mice)) (UniProt O08537); assay: condition: only estrogen and tamoxifen supplemented, MPTP-treated male mice, day7; co-IP; as a1; estrogen + tamoxifen supplemented prior to MPTP, male mice, day7
Molecule,binding [1],binding [2],binding [3],binding [4],binding [5],binding [6],binding [7],binding [8],binding [9]
estrogen receptor α (from UniProt P19785 1-599),binds weakly,binds,binds weakly,–,–,–,–,–,–
NF-κB molecule p65 (from UniProt Q04207 1-549),–,binds,binds weakly,no binding,no binding,no binding,no binding (condition: MPTP-treated male mice),–,–
B1,–,–,–,–,–,–,–,binds,no binding
